Assay results: patent US20030054520A1, “Recombinant enzymes having improved NAD (H) affinity” (DEGUSSA AG, priority 2000, published 2003)

Tested on: G38D mutein of recADH
Test: Stereoselectivity: enzymatic reduction with coenzyme regeneration, ee of the product by chiral GC
Assay type: biochemical
Settings: 10 mM keto substrate, NADH regenerated with formate/formate dehydrogenase; ee(R)

SMILES | ee value of the product
CC(=O)c1ccc(Cl)cc1 [4-chloroacetophenone] | >99%
CCCCCC(C)=O [2-Heptanone] | >99%
CCCCC(C)=O [2-Hexanone] | >99%
CC(=O)c1ccccc1 [Acetophenone] | >99%
CCOC(=O)C(=O)CC [2-Oxobutyric acid ethyl ester] | >99%
